Measured values reported in patent US20220401438A1, “CANCER THERAPEUTIC METHODS” (University Health Network, priority 2021, published 2022).
At least one structure is not confirmed: it was looked up by name or label, or the drawing left a doubt.

Key:
Assay type in all cases: cell-based
[1] = system: panel of 28 ovarian cancer cell lines; assay: Alamar blue cell viability, Itra activity area; settings: 28 cell lines, 5 days of exposure, 0-40 μM Itra, threshold of 0.8 SD on the mean
[2] = system: c18orf8 knockout OVCAR5; assay: Alamar blue, Itra in c18orf8 knockout cells; settings: stable knockout of c18orf8, OVCAR5, Alamar blue
[3] = system: VPS54 knockout OVCAR5; assay: Alamar blue, Itra in VPS54 knockout cells; settings: knockout of VPS54, OVCAR5, Alamar blue
[4] = system: TOV21g; assay: Alamar blue, Itra alone and Itra/CQ combination, Bliss synergy
[5] = system: TOV21g cells; assay: Lysosomal Intracellular Activity Assay (self-quenched substrate); settings: Itra 5 μM, CQ 5 μM, alone or co-treated, 48 hours

In the case of CCC(C)n1ncn(-c2ccc(N3CCN(c4ccc(OCC5COC(Cn6cncn6)(c6ccc(Cl)cc6Cl)O5)cc4)CC3)cc2)c1=O (centres unmarked) [Itra, Itraconazole], the “Itra sensitivity by activity area method: resistant, intermediate and sensitive cell lines” value [1] was 7 resistant, 15 intermediate and 6 sensitive cell lines, the “sensitivity to Itra, knockout versus control” value [2] was “strongly sensitized” and the “sensitivity to Itra, knockout versus control” value [3] was “increased sensitivity”. The “sensitivity to Itra alone (Itra activity area)” value [4] was “exquisitely resistant” and the “lysosomal function (fluorescence of self-quenched substrate)” value [5] was “increased fluorescence”.
